PubChem BioAssay AID1508597, Cure First – 2020
Shown is a random part of the about 2,100 reagents, under one of the conditions tested. 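Calls flag viability under 80% in either arm, not effects specific to rucaparib; the reference for percent is not stated.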 Some reagents were tested in more than one well and are listed for each. Not stated in the record: the 100% reference.

- Purpose: 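Knock-downs altering ovarian cancer cell survival with or without PARP inhibitor rucaparib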 (primary screen)
- Cells: human ovarian carcinoma lines grown from tumours: OCI-P5x (papillary serous) and OCI-C5x (clear cell)
- Reagents: siRNA pool against human genes, 1.25 pmol siRNA per well
- Time to read-out: 72 h or 96 h, depending on the cell culture
- Treatment: rucaparib 20 µM (about IC30) or vehicle, present until read-out
- Rucaparib or vehicle: Rucaparib
- Cell line: OCI-C5x (clear cell)
- Read-out: 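Luminescent ATP-based viability assay read 72 or 96 h after transfection, depending on culture, given as normalised percent viability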
- Reading the numbers: viability, normalised: higher = more viable cells remaining
- Rule for the call: 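Active when normalised viability falls below 80 percent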
- Calls: active = viability under 80%; inactive = viability 80% or more

target,technical replicate,"viability, normalised (%)",activity call
COPRS (coordinator of PRMT5 and differentiation stimulator),1,59.2,active
COPRS (coordinator of PRMT5 and differentiation stimulator),2,53.8,active
COPRS (coordinator of PRMT5 and differentiation stimulator),3,72.1,active
MED19 (mediator complex subunit 19),1,19.3,active
MED19 (mediator complex subunit 19),2,28.7,active
MED19 (mediator complex subunit 19),3,32,active
NRXN3 (neurexin 3),1,49.5,active
NRXN3 (neurexin 3),2,40.7,active
NRXN3 (neurexin 3),3,39.5,active
CHMP1A (charged multivesicular body protein 1A),1,57.4,active
CHMP1A (charged multivesicular body protein 1A),2,55,active
CHMP1A (charged multivesicular body protein 1A),3,45.9,active
STKLD1 (serine/threonine kinase like domain containing 1),1,41.1,active
STKLD1 (serine/threonine kinase like domain containing 1),2,58.1,active
STKLD1 (serine/threonine kinase like domain containing 1),3,54.2,active
AIPL1 (AIP like 1 HSP90 co-chaperone),1,50.6,active
AIPL1 (AIP like 1 HSP90 co-chaperone),2,47.2,active
AIPL1 (AIP like 1 HSP90 co-chaperone),3,43,active

Continued, starting with the last 4 of the part before.
target,technical replicate,"viability, normalised (%)",activity call
STKLD1 (serine/threonine kinase like domain containing 1),3,54.2,active
AIPL1 (AIP like 1 HSP90 co-chaperone),1,50.6,active
AIPL1 (AIP like 1 HSP90 co-chaperone),2,47.2,active
AIPL1 (AIP like 1 HSP90 co-chaperone),3,43,active
ZDHHC17 (zDHHC palmitoyltransferase 17),1,50.8,active
ZDHHC17 (zDHHC palmitoyltransferase 17),2,34.3,active
ZDHHC17 (zDHHC palmitoyltransferase 17),3,36.8,active
DCLRE1A (DNA cross-link repair 1A),1,57.1,active
DCLRE1A (DNA cross-link repair 1A),2,52.3,active
DCLRE1A (DNA cross-link repair 1A),3,65.7,active
TGFBR3 (transforming growth factor beta receptor 3),1,69.3,active
TGFBR3 (transforming growth factor beta receptor 3),2,69.3,active
TGFBR3 (transforming growth factor beta receptor 3),3,54.9,active
PELO (pelota mRNA surveillance and ribosome rescue factor),1,31.4,active
PELO (pelota mRNA surveillance and ribosome rescue factor),2,28,active
PELO (pelota mRNA surveillance and ribosome rescue factor),3,24.4,active
"POLD3 (DNA polymerase delta 3, accessory subunit)",1,58.1,active
"POLD3 (DNA polymerase delta 3, accessory subunit)",2,66.5,active
"POLD3 (DNA polymerase delta 3, accessory subunit)",3,60.6,active
NME7 (NME/NM23 family member 7),1,55.4,active
NME7 (NME/NM23 family member 7),1,72,active
NME7 (NME/NM23 family member 7),2,50.1,active
NME7 (NME/NM23 family member 7),2,49.1,active
NME7 (NME/NM23 family member 7),3,39.6,active
NME7 (NME/NM23 family member 7),3,48.5,active
